# Experimental data published in PMC10163288.
# Some of the results follow.
# B1: il10ra_site1_normal_mot_HHH_b2_02736_000000092_0001_22_38_H_._HHH_b1_01700_0001_0000400037_0000001_0 (protein)
# chain: SSSSDQEVYELLRELIEALSEGDEERFEELLEEVRRLAEELNNFALLFAIRLLEEQFRQLHSSSS
# B2: il10ra_site1_normal_mot_HHH_b1_02708_af2_000000019_0001_23_39_H_._HHH_b1_07222_0002_0000600032_0000002_0 (protein)
# chain: SSSDREEVVELLYRINRAAQEGDEELLEELLELLEELLKEIKDPEVRKYAEIALRFLENHLSSSS
# B3: il10ra_site1_sap_18_mot_HHH_b1_06789_af2_000000041_0001_1_20_H_._HHH_b2_05092_af2_0001_0000200004_0000002_0_0001_af2pred_0001 (protein)
# chain: SSSSDELERRAEELLEEAEERNDELAALIARAVLILVRLAEELGDPERAKLSLKDLEATLSSSSS
# B4: il10ra_site1_sap_15_mot_HHH_b2_02347_000000198_0001_23_40_H_._HHH_b2_06432_0001_0000500028_0000002_0_0001 (protein)
# chain: SSSSDEEVREEVEELLEEAEKIEDEHERAQLMFEALRLASENRDEELLEEIIRVIAELMDSSSSS
# B5: il10ra_site1_sap_14_mot_HHH_eva_0266_af2_000000000_0001_3_18_H_._HHH_b1_03321_0001_0000100001_0000001_0_0001 (protein)
# chain: SSSSYEELKKLIERITRALREGNREEAQELIERVEELAEERNDWSARFVARVLQEALEANSSSSS
# B6: il10ra_site1_normal_mot_HHH_b2_00033_000000036_0001_41_54_H_._HHH_b2_03374_0001_0000100007_0000001_0 (protein)
# chain: SSSSDEEEEELQRILEELEEAVERGDQEAVARLAQEAIRIAIRLNDPEIFQKLWEVAKAFVSSSS
# B7: il10ra_site1_normal_mot_fda5df8c19bda1ddfcc41857df859eb0_0001_1_000000120_0001_35_49_H_._2ff9a36852ec7b54996b5ca24e2ac07d_0001_0001_0000100003_0000001_0_1_af2pr … (protein)
# chain: SQEELRLRAAIRLSPEAFVLAVLALARRAGVPPEEVEKLEERLRELLKRGNEEEAIELALEVLKR
# B8: il10ra_site1_normal_mot_HHH_b1_07835_af2_000000063_0001_1_16_H_._HHH_b1_05937_0001_0000500035_0000001_1_af2pred_0001 (protein)
# chain: SSSSSDEEEERIEELLEEMKHIKDEREFAQKVFEALKRIAEIKNEELFHLLIKIASEFLSSSSSS
# B9: il10ra_site1_sap_20_mot_HHH_b1_05254_000000006_0001_1_19_H_._HHH_b1_07585_0001_0000200008_0000002_0_0001 (protein)
# chain: SSSSSDEDEEYVRMSLRFAKWLAKYDPEAARRIVKAALDFARAHGDPLAEEIEELLEELESSSSS
# B10: il10ra_site1_sap_26_mot_HHH_b1_04693_000000238_0001_19_36_H_._HHH_b2_01018_0001_0000100004_0000002_0_0001_af2pred_0001 (protein)
# chain: SSSSSSDRVERIVRLLLLSAERTEDEEVLRAALRLARQVAEANGDEEAEKLVEEVQERLSSSSSS
# B11: il10ra_site1_normal_mot_HHH_b2_02497_000000220_0001_1_20_H_._HHH_b1_03596_af2_0001_0000300014_0000001_0 (protein)
# chain: SSSSDDEVYELIRRAIELISDGNPEEAEEVLKEAEELAREANNPNMEWVLEFLKRLLERYSSSSS
# B12: il10ra_site1_sap_24_mot_ec1b5fbdfc68683bf2e332ee276bd15f_0001_af2_000000176_0001_16_30_H_._6f4e18b70ea6afe83e6ac5c3da76eb22_0001_0001_0000400029_0000001_0_0001 (protein)
# chain: SSSSSEFLERDLRAIEHIIRAGDKEYARLALRFVKYLAEELNDEEVQEEIERLEELLEEISSSSS
# B13: il10ra_site1_sap_25_mot_HHH_b2_03038_000000109_0001_1_20_H_._HHH_b2_05280_af2_0001_0000200012_0000001_0_0001 (protein)
# chain: SELLKKAFELQRRQGTPPEQVVEALVFLLAMRHNIPPEEAKELLLEIAEELGDPELEELVEKILR
# B14: il10ra_site1_normal_mot_HHH_b1_06128_000000102_0001_1_20_H_._HHH_b2_08377_af2_0001_0000600009_0000001_1 (protein)
# chain: SSSSDLQELAARAVLRAARLFIRGNREEAERLLEEVEEELEKKNNEEALEVVRRALEILRSSSSS
# B15: il10ra_site1_normal_mot_HHH_b2_02736_000000092_0001_22_38_H_._HHH_b1_03120_0001_0000400042_0000001_0 (protein)
# chain: SSSSNEEDQELYERLRKLIELVTEGDEEEAEELLEELERLARELNNFIILFVVRLLKRQLSSSSS
# B16: il10ra_site1_sap_23_mot_HHH_b2_00441_000000175_0001_1_18_H_._HHH_b2_06532_0001_0000100006_0000001_0_0001_af2pred_0001 (protein)
# chain: SSPEEAQKLLEEAEELAEEQNDKHALAAVRFWKHLDEWAKERNDERLVELVARAARVLLRILQES
# B17: il10ra_site1_normal_mot_HHH_b1_01821_000000158_0001_23_39_H_._HHH_b2_02890_0001_0000400020_0000001_0 (protein)
# chain: SSSSSEAEERVEELLEEAKHIEDPKEVNRLLLEALRLAYEAKNEELLQEIWEVFQELIELLSSSS
# B18: il10ra_site1_normal_mot_HHH_b1_05056_000000217_0001_1_20_H_._HHH_b1_04508_0001_0000500021_0000001_1 (protein)
# chain: SSSSSSSDQEEVEELLEEAEHIEDPRERTEVLLEATHLALRLQDPELLQLVWEVVRRLSSSSSSS
# Biological target: il10ra, Q13651
# Assay: yeast display titration
row,Binder,apparent Kd
1,B1,inactive: no binding seen
2,B2,inactive: no binding seen
3,B3,inactive: no binding seen
4,B4,inactive: no binding seen
5,B5,inactive: no binding seen
6,B6,inactive: no binding seen
7,B7,inactive: no binding seen
8,B8,inactive: no binding seen
9,B9,inactive: no binding seen
10,B10,inactive: no binding seen
11,B11,inactive: no binding seen
12,B12,inactive: no binding seen
13,B13,inactive: no binding seen
14,B14,inactive: no binding seen
15,B15,inactive: no binding seen
16,B16,inactive: no binding seen
17,B17,inactive: no binding seen
18,B18,inactive: no binding seen

# Individual results from the list:
# For apparent Kd, B2 has the entry inactive: no binding seen
# For apparent Kd, B14 has the entry inactive: no binding seen
